# Results: the supplement of paper PMC8256030
# Some of the results follow. This data set is noisy: repeats of one test often differ as much as different tests do.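 HEK293T cells were given each compound shortly before transfection with a reporter in which red mCherry is followed by the SARS-CoV-2 frameshift element and then GFP in the −1 frame, so GFP appears only after frameshifting.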
# System: HEK293T
# Assay: percent viability (nuclei count) relative to control; higher = more viable cells
# Settings: 10 µM; 24 h
row,SMILES,percent viability [%]
1,CC(=O)Oc1ccccc1C(=O)Nc1ncc([N+](=O)[O-])s1 [nitazoxanide],463
2,NCCc1c[nH]cn1 [Histamine Phosphate],164
3,CCCCn1c(=O)c2c(ncn2CC(C)=O)n(CCCC)c1=O [denbufylline],270
4,CC(C)(C)[C@]1(O)CCN2C[C@H]3c4ccccc4CCc4cccc(c43)[C@@H]2C1 [butaclamol],136
5,CC1(C)OC[C@@H]2O[C@@]3(C(=O)O)OC(C)(C)O[C@H]3[C@@H]2O1 [diprogulic acid],93.6
6,CSc1ccc2c(c1)C(N1CCN(C)CC1)Cc1ccccc1S2 (centres undefined),25.7
7,CC[C@@H](CO)NCCN[C@@H](CC)CO [ethambutol],136
8,CC(C)NC(=O)[C@H]1CCC[C@H]1Nc1nc(Nc2ccc(C(=O)N(C)C3CCN(C)CC3)cc2)ncc1Cl,176
9,COc1ccc(OC(=O)N(CC(=O)O)Cc2ccc(OCCc3nc(-c4ccccc4)oc3C)cc2)cc1 [muraglitazar],65.6
10,CCN(CC)C(C)CC(=O)Nc1ccccc1 (centres undefined) [octacaine],153
11,c1ccc(-c2cc(CCC3CCNCC3)c3ccccc3n2)cc1 [pipequaline],72.1
12,N=C(N)NCC1COC2(CCCCC2)O1 (centres undefined),350
13,C[C@H](CCC(=O)O)[C@H]1CC[C@H]2[C@@H]3CC[C@@H]4C[C@H](O)CC[C@]4(C)[C@H]3C[C@H](O)[C@]12C [deoxycholic acid],193
14,O=P(O)(O)C(Cl)(Cl)P(=O)(O)O [clodronic acid],93.1

# Nos. 2 through 3 of the list above:
row,SMILES,percent viability [%]
2,NCCc1c[nH]cn1 [Histamine Phosphate],164
3,CCCCn1c(=O)c2c(ncn2CC(C)=O)n(CCCC)c1=O [denbufylline],270
